The target of one assay is Flag-USP7 (UniProt Q93009). Nature of the assay: co-IP; HEK-293T cells transfected with Flag-USP7 and His-PRMT1; lysates in buffer A (25 mM Tris-HCl pH 8.0, 10 mM NaCl, 0.5 mM EDTA, 0.5% NP-40) precipitated with anti-Flag or anti-His antibodies and Protein A/G magnetic beads at 4 °C; western blot. A general note: A western blot detects proteins with antibodies after separation by electrophoresis.

Amino acid sequences for entries named in this document (tags omitted).
UniProt Q93009: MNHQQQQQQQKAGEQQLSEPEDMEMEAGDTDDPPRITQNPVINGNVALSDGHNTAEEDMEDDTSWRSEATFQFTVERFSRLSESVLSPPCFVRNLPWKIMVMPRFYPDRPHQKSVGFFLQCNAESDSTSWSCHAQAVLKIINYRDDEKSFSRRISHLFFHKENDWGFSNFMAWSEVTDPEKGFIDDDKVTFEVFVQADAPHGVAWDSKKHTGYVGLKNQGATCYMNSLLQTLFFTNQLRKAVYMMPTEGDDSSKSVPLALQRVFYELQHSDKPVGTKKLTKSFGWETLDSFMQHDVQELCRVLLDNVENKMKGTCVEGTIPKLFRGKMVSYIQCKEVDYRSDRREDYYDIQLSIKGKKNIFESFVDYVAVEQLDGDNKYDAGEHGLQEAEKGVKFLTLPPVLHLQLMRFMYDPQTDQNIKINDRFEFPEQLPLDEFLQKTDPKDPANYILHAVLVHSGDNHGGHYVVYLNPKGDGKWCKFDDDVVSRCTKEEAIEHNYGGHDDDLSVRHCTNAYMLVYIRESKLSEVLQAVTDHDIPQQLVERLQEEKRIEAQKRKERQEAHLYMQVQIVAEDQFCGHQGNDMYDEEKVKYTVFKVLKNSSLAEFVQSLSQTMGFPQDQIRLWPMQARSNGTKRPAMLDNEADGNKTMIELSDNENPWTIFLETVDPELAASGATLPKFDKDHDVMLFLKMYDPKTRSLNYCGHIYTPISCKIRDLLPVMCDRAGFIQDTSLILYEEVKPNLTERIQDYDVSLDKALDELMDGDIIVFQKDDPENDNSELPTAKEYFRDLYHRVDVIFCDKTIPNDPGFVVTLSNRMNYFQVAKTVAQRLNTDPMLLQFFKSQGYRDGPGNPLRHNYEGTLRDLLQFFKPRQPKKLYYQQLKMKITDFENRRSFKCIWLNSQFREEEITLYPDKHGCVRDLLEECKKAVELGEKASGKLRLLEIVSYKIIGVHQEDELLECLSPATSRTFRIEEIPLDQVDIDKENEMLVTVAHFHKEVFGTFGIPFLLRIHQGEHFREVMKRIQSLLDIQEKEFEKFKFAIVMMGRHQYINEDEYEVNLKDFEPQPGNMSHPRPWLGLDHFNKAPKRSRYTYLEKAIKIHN
UniProt Q99873: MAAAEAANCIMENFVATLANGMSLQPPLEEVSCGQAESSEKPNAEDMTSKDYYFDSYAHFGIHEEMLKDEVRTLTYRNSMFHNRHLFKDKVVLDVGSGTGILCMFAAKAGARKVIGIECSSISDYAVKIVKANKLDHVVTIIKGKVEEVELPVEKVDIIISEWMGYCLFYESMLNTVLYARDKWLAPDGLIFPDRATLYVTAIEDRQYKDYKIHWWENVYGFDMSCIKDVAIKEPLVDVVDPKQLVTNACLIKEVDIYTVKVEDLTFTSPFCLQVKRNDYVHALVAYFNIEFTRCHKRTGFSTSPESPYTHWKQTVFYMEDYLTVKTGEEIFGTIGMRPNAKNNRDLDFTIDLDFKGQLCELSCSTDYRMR

In another assay the target is His-PRMT1 (UniProt Q99873). The assay is described as above.

These results are taken from paper PMC11251085.

These are yes or no findings as the source states them, for the method shown. In cells and extracts the contact can be indirect. Some entries that bind do so weakly or less than the wild type.

For “His-PRMT1 (from UniProt Q99873 1-371) (enzyme)”, in the assay with Flag-USP7, the binding entry is on record as “binds”. With “Flag-USP7 (from UniProt Q93009 1-1102) (enzyme)”, the binding result with His-PRMT1 is reported as “binds”.
